Assay results as given in PMC8783677.
These are yes or no findings as the source states them, for the method shown. Binding seen in cells or lysates may run through a third protein. Some binding calls cover weakened binding; strength is not graded here. For some assays here: Tags and fused reporters may be left off the sequences shown.

Sequences of proteins named here, by UniProt entry; tags and fusion partners are left off.
UniProt Q06187: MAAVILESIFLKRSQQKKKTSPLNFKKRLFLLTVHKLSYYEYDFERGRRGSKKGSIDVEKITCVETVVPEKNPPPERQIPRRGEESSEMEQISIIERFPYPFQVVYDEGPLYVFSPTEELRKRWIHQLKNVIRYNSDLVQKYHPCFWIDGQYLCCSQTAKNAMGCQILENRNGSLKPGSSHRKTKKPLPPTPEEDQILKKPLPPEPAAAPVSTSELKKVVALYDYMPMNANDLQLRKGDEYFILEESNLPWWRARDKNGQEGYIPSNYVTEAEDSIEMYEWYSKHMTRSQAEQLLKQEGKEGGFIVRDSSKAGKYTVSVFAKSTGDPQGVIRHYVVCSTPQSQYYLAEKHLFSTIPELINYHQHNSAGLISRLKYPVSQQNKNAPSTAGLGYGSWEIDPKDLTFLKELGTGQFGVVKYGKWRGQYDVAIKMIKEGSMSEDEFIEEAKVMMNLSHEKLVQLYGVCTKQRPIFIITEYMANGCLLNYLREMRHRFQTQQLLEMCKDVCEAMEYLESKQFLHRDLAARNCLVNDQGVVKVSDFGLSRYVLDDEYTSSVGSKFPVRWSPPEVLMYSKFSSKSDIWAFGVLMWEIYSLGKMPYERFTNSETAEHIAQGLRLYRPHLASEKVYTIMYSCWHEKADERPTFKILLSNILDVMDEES
UniProt O60828: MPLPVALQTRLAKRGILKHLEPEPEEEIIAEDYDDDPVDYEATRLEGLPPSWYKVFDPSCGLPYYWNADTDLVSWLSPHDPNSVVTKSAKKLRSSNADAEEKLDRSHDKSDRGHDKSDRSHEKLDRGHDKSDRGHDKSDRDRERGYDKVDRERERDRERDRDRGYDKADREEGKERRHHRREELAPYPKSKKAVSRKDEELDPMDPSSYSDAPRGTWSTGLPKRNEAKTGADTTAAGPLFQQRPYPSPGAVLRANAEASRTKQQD

T1: GST-fused CPVL (human) (UniProt Q9H3G5)
T1 sequence: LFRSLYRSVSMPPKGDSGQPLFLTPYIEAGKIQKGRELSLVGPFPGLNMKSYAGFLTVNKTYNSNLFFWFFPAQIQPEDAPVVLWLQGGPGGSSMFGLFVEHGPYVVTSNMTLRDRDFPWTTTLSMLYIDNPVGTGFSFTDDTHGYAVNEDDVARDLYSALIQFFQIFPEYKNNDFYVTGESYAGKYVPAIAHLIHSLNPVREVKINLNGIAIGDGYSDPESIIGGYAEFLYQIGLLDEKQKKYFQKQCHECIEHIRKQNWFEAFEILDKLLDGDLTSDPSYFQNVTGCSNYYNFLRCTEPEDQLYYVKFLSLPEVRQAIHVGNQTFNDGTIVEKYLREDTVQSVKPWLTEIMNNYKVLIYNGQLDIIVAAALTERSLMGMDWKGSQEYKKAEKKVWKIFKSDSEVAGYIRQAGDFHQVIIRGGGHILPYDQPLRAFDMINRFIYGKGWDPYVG

T2: FLAG-CPVL (carboxypeptidase, vitellogenic-like) (human) (UniProt Q9H3G5)
T2 sequence: T1 sequence

B1: in vitro transcribed/translated CPVL (protein, UniProt Q9H3G5 1-476)
chain: MVGAMWKVIVSLVLLMPGPCDGLFRSLYRSVSMPPKGDSGQPLFLTPYIEAGKIQKGRELSLVGPFPGLNMKSYAGFLTVNKTYNSNLFFWFFPAQIQPEDAPVVLWLQGGPGGSSMFGLFVEHGPYVVTSNMTLRDRDFPWTTTLSMLYIDNPVGTGFSFTDDTHGYAVNEDDVARDLYSALIQFFQIFPEYKNNDFYVTGESYAGKYVPAIAHLIHSLNPVREVKINLNGIAIGDGYSDPESIIGGYAEFLYQIGLLDEKQKKYFQKQCHECIEHIRKQNWFEAFEILDKLLDGDLTSDPSYFQNVTGCSNYYNFLRCTEPEDQLYYVKFLSLPEVRQAIHVGNQTFNDGTIVEKYLREDTVQSVKPWLTEIMNNYKVLIYNGQLDIIVAAALTERSLMGMDWKGSQEYKKAEKKVWKIFKSDSEVAGYIRQAGDFHQVIIRGGGHILPYDQPLRAFDMINRFIYGKGWDPYVG
B2: MICA (protein, UniProt Q29983 24-383)
chain: EPHSLRYNLTVLSWDGSVQSGFLTEVHLDGQPFLRCDRQKCRAKPQGQWAEDVLGNKTWDRETRDLTGNGKDLRMTLAHIKDQKEGLHSLQEIRVCEIHEDNSTRSSQHFYYDGELFLSQNLETKEWTMPQSSRAQTLAMNVRNFLKEDAMKTKTHYHAMHADCLQELRRYLKSGVVLRRTVPPMVNVTRSEASEGNITVTCRASGFYPWNITLSWRQDGVSLSHDTQQWGDVLPDGNGTYQTWVATRICQGEEQRFTCYMEHSGNHSTHPVPSGKVLVLQSHWQTFHVSAVAAAAIFVIIIFYVRCCKKKTSAAEGPELVSLQVLDQHPVGTSDHRDATQLGFQPLMSDLGSTGSTEGA

Columns and labels:
GST-fused CPVL (human) = target: T1, GST-fused CPVL (human); test: pull-down; about 10 ug GST fusion protein (from crude E. coli BL21 lysate) mixed with 5-8 uL in vitro transcribed/translated product in 0.8% BSA in PBS; glutathione-Sepharose beads, 4 C, 2 hours; 5 washes; Western blot
[1] = target: T2, FLAG-CPVL (carboxypeptidase, vitellogenic-like) (human); test: co-IP; whole-cell lysates of U251 cells transfected with FLAG-vector or FLAG-CPVL; IP with anti-FLAG antibody, immunoblot with antibodies against the indicated proteins
GST-fused BTK = GST-fused BTK (UniProt Q06187); test: pull-down; about 10 ug GST fusion protein (from crude E. coli BL21 lysate) mixed with 5-8 uL in vitro transcribed/translated product in 0.8% BSA in PBS; glutathione-Sepharose beads, 4 C, 2 hours; 5 washes; Western blot

| Molecule | binding [1] | also measured |
| --- | --- | --- |
| in vitro transcribed/translated BTK (from UniProt Q06187 1-659) (enzyme) | – | binding (GST-fused CPVL (human)): binds |
| PQBP1 (from UniProt O60828 1-265) | binds | – |
| Bruton's tyrosine kinase (BTK) (from UniProt Q06187 1-659) (enzyme) | binds | – |
| B1 | – | binding (GST-fused BTK): binds |
| B2 | binds | – |
